Reference: the supplement of paper PMC10849652
The list shows a part of the results.

Sequences of proteins named here, by UniProt entry; tags and fusion partners are left off. A change or cut given only in a name is not applied to a line headed by its entry.
UniProt P62877, whole entry, looked up: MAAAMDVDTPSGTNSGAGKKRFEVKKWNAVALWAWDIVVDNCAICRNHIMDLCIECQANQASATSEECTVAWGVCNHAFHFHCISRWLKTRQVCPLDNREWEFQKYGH
UniProt Q9BV68: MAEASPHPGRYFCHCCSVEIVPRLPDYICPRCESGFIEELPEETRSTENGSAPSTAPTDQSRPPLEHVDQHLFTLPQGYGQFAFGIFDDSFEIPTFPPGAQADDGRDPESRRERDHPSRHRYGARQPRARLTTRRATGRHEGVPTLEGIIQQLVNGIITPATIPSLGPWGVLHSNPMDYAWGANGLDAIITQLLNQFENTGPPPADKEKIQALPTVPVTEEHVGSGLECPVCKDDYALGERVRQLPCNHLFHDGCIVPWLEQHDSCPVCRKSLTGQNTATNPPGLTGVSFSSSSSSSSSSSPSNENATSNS
UniProt O00287: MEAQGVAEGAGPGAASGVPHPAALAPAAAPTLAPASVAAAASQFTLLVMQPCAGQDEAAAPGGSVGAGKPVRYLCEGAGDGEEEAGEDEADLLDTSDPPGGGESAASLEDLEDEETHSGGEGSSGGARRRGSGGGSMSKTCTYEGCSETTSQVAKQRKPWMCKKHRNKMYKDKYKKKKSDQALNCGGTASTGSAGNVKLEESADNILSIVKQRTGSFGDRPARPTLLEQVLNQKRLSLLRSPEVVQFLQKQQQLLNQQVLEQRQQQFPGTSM
UniProt Q6NUQ1: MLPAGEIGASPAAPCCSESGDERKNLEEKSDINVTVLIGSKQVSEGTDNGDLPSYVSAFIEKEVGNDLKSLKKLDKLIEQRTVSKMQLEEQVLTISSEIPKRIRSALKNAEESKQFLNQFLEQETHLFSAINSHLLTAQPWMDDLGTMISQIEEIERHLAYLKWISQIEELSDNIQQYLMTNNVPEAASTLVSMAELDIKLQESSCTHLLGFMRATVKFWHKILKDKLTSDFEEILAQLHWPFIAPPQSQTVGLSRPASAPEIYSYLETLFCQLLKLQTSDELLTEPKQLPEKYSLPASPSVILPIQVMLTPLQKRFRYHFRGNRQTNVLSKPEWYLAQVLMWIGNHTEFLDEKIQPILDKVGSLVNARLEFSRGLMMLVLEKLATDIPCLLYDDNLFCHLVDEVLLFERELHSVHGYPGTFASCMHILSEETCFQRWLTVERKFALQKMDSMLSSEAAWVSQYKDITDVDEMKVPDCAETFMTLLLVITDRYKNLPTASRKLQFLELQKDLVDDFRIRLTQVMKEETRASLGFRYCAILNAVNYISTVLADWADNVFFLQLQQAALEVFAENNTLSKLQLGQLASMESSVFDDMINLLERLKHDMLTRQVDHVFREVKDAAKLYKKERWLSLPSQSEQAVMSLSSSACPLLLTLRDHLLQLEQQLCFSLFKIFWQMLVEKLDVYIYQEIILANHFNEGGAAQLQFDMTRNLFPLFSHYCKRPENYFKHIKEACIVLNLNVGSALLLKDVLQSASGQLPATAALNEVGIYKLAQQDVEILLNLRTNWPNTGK
UniProt Q8WZ73: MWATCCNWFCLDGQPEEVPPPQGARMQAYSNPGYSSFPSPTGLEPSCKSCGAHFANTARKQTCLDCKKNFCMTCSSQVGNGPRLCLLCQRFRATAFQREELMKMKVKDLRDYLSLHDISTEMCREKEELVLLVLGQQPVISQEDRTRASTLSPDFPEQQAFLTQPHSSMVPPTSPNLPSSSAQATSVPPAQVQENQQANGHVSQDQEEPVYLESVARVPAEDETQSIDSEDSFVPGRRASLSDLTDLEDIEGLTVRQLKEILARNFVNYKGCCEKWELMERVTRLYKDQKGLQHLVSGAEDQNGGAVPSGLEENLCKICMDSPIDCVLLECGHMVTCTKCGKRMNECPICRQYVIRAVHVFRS
UniProt Q9Y256: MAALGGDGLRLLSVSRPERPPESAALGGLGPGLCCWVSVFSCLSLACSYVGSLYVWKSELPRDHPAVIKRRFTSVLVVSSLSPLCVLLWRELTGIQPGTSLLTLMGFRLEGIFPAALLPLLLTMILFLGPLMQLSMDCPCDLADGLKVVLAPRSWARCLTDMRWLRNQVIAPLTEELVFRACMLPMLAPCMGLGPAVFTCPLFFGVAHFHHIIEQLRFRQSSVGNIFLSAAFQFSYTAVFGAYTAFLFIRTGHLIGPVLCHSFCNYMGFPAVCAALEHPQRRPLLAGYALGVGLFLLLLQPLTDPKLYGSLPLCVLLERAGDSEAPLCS
UniProt Q96PM5: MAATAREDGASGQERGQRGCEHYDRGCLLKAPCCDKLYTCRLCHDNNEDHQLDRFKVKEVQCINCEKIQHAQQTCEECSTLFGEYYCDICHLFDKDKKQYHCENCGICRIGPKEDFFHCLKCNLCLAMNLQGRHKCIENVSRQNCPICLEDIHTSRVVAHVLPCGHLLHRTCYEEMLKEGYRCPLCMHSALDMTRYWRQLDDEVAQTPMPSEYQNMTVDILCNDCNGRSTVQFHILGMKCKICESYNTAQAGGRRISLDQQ
UniProt Q9BTD8: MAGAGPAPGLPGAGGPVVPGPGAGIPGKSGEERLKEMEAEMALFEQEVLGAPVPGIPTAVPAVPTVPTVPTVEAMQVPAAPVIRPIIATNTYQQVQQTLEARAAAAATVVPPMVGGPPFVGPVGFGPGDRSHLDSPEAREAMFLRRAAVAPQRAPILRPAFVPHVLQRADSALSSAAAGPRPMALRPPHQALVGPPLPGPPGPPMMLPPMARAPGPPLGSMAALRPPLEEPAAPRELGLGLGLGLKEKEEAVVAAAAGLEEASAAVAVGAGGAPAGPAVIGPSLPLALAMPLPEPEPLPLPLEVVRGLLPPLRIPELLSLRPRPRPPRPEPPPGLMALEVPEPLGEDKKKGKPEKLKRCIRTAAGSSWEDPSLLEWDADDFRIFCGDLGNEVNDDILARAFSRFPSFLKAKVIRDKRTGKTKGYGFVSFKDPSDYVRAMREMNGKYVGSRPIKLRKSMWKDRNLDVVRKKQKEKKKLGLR
UniProt P34096: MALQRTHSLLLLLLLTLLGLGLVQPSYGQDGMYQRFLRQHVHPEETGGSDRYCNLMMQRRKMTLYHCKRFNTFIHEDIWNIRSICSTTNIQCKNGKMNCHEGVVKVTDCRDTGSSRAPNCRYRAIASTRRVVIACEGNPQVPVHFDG
UniProt P35250, whole entry, looked up: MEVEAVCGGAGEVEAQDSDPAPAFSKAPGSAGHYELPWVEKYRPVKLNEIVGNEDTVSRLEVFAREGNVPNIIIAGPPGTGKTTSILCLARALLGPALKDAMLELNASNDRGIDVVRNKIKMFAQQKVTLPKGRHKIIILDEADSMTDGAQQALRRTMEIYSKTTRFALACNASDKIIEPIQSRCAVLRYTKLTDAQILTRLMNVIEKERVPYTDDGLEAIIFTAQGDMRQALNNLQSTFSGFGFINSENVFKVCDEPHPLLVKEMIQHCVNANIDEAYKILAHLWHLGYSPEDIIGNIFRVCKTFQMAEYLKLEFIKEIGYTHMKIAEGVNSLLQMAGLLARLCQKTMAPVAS
UniProt P82980: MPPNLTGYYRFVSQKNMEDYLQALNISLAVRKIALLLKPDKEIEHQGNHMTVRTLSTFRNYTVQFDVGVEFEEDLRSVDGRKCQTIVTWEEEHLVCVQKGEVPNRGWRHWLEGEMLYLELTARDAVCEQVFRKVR
UniProt Q9BQY4: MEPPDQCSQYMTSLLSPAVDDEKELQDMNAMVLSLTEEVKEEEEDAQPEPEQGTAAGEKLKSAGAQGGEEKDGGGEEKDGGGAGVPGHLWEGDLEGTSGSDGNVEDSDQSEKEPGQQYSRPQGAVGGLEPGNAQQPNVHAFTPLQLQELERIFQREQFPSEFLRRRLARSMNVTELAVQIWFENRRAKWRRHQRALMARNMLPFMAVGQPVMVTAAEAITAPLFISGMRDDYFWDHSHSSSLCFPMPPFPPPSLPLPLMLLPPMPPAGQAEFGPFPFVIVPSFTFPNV
UniProt Q8IXI2: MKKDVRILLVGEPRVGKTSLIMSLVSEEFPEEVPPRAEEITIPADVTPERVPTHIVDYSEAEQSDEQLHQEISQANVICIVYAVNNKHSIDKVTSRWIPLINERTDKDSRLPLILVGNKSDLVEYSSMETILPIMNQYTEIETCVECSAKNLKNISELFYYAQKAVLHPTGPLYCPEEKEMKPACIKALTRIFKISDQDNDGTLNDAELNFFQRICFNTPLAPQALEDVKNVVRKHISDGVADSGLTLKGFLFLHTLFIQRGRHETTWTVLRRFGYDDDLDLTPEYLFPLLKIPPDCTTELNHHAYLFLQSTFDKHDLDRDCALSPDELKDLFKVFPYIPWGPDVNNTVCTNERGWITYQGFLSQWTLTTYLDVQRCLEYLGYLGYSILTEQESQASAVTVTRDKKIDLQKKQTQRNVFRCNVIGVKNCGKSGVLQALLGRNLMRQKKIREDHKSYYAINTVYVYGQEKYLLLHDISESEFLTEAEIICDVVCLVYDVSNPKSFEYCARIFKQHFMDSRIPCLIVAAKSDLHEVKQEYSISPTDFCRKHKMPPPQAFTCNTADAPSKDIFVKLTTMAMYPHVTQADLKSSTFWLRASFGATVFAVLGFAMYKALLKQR
UniProt P52758: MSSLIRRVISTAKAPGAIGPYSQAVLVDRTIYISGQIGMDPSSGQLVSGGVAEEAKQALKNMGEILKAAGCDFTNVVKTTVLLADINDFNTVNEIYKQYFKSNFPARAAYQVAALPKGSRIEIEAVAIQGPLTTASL
UniProt O43353, whole entry, looked up: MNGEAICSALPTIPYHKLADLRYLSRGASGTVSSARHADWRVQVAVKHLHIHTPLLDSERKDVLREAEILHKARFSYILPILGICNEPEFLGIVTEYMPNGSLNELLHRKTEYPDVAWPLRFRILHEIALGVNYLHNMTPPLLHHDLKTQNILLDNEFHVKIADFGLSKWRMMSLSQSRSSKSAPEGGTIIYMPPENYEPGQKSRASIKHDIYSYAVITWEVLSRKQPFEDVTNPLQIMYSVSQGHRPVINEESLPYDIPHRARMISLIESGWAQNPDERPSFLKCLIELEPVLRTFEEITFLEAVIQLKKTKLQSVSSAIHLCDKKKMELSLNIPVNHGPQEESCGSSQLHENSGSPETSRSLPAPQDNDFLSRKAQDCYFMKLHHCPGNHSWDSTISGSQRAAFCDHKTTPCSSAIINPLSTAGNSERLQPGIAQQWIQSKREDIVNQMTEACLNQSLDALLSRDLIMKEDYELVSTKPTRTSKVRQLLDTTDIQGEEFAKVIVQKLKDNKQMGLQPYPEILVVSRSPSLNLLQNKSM
UniProt Q9Y580: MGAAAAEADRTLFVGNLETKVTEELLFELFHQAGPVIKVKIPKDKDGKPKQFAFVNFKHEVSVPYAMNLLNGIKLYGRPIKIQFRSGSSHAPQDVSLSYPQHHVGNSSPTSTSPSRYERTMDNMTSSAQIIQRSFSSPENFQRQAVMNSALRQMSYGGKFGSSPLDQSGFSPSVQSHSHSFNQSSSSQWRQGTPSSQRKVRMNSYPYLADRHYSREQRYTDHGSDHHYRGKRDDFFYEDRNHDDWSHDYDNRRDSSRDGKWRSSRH
UniProt Q5TBB1: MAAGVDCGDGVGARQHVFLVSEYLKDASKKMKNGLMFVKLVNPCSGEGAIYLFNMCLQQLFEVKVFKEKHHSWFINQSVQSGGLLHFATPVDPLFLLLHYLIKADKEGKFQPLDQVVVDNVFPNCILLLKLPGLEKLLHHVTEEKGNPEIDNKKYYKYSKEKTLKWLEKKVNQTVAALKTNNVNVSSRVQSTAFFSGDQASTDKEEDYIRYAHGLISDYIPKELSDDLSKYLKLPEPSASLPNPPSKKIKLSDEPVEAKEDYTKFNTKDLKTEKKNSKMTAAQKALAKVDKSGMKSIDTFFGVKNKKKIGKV
UniProt Q04206, whole entry, looked up: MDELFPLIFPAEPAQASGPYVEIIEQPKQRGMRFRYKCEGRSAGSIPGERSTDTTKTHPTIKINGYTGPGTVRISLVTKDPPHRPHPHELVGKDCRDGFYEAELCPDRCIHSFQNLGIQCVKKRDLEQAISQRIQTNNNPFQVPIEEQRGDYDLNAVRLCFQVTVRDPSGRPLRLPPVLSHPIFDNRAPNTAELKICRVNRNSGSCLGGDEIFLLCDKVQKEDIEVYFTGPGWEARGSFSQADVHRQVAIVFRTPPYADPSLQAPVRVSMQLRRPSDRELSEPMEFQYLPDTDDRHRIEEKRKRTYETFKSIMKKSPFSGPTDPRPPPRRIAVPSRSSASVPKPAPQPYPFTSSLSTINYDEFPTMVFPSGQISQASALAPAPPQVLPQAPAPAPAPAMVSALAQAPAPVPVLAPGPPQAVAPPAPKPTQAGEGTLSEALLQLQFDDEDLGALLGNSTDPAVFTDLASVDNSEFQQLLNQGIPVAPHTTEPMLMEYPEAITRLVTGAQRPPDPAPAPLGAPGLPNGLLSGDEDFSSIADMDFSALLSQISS
UniProt Q9H920: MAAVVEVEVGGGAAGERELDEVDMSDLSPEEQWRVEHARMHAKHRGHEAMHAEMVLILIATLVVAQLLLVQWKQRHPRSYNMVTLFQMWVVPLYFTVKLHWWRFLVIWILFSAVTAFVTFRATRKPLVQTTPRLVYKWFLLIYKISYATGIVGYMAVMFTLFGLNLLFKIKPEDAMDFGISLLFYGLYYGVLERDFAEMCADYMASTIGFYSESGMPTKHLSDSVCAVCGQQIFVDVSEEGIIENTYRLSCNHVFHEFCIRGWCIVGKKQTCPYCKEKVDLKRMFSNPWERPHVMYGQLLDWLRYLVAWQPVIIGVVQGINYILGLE

How the values were obtained:
Assay in all cases: log2 fold change, soluble protein after heating vs DMSO (PISA); higher = thermal stabilisation; K562 cells, 10 uM, 30 min; active = over 0.2 and 3.5 SD of the protein, either way, in both replicates (recomputed)
[1] = compound: CC[C@@H]1C(=O)N(C)c2cnc(Nc3ccc(C(=O)NC4CCN(C)CC4)cc3OC)nc2N1C1CCCC1
Outline: (§1)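 K562 cells at 2×10^6 cells/mL were treated with 10 μM compound for 30 min. Aliquots were heated for 3 min across 48°C-58°C, pooled, and extracted in PBS with 0.5% NP-40 at 4°C; soluble protein was the supernatant after 21,000xg for 90 min. Soluble protein was quantified by TMTpro 16plex LC-MS/MS with channel sums equalised, and reported as log2 fold change in thermal stability against DMSO controls, with values from duplicates.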

volasertib = compound: CC[C@@H]1C(=O)N(C)c2cnc(Nc3ccc(C(=O)N[C@H]4CC[C@H](N5CCN(CC6CC6)CC5)CC4)cc3OC)nc2N1C(C)C [volasertib]
Outline: as §1

[2] = compound: CC[C@H](C)N1C=C(C2=C(C=C(C=C21)C3=CN=C(C=C3)N4CCNCC4)C(=O)NCC5=C(C=C(NC5=O)C)C)C
Outline: as §1

epoxomicin = compound: CC[C@H](C)[C@@H](C(=O)N[C@@H]([C@@H](C)O)C(=O)N[C@@H](CC(C)C)C(=O)[C@]1(CO1)C)NC(=O)[C@H]([C@@H](C)CC)N(C)C(=O)C [epoxomicin]
Outline: as §1

[3] = compound: CCn1c(C(=O)N(C2CC2)C2CC2)cc2c3c(ncn3C)c(Nc3cc(C)n(C)n3)nc21
Outline: as §1

[4] = compound: CCn1cc(-c2ccnc3[nH]c(-c4cccc(CN(C)C)c4)cc23)c(-c2ccc(NC(=O)N(C)C)cc2)n1
Outline: as §1

[5] = compound: CN(C)CC(=O)Nc1ccc2[nH]c(=O)c3ccccc3c2c1
Outline: as §1

rosiglitazone = compound: CN(CCOC1=CC=C(C=C1)C[C@H]2C(=O)NC(=O)S2)C3=CC=CC=N3 (racemic) [rosiglitazone]
Outline: as §1

[6] = compound: CN1C2=C(C3=C1C(=O)N(N=C3)CC4=CC(=CC=C4)N)SC(=C2)S(=O)C
Outline: as §1

[7] = compound: CN1CCC(CNc2ccc3ncc(-c4cccc(OC(F)(F)F)c4)n3n2)CC1
Outline: as §1

Measured: log2 fold change

RBX1 (UniProt P62877)
inactive: [1] 0.042 | volasertib 0.076 | [2] -0.007 | epoxomicin -0.058 | [3] 0.103 | [4] -0.079 | [5] -0.058 | rosiglitazone 0.025 | [6] -0.115 | [7] -0.024

RDH14 (UniProt Q9HBH5)
inactive: [1] -0.007 | volasertib -0.039 | [2] -0.017 | epoxomicin -0.052 | [3] 0.049 | [4] -0.051 | [5] -0.02 | rosiglitazone 0.082 | [6] -0.147 | [7] 0.222

RIC1 (UniProt Q4ADV7)
inactive: [1] -0.067 | volasertib -0.209 | [2] 0.165 | epoxomicin 0 | [3] -0.078 | [4] 0.061 | [5] 0.151 | rosiglitazone -0.032 | [6] -0.307 | [7] -0.001

RNF126 (UniProt Q9BV68)
inactive: [1] 0.002 | volasertib -0.135 | [2] -0.014 | epoxomicin 0.067 | [3] -0.023 | [4] -0.064 | [5] -0.03 | rosiglitazone 0.009 | [6] -0.029 | [7] 0.033

RFXAP (UniProt O00287)
inactive: [1] 0.052 | volasertib 0.048 | [2] 0.034 | epoxomicin 0.043 | [3] -0.114 | [5] -0.018 | rosiglitazone -0.004 | [6] 0.031

RINT1 (UniProt Q6NUQ1)
inactive: [1] 0.155 | volasertib -0.122 | [2] 0.105 | epoxomicin -0.294 | [3] -0.134 | [4] 0 | [5] 0.044 | rosiglitazone 0.065 | [6] 0.286 | [7] 0.071

RFFL (UniProt Q8WZ73)
inactive: [1] 0.002 | volasertib -0.198 | [2] 0.061 | epoxomicin -0.016 | [3] -0.013 | [5] -0.02 | rosiglitazone -0.076 | [6] 0.179

RCE1 (UniProt Q9Y256)
inactive: [1] -0.111 | volasertib 0.035 | [2] -0.001 | epoxomicin -0.064 | [3] 0.033 | [4] -0.183 | [5] -0.023 | rosiglitazone 0.114 | [6] -0.063 | [7] 0.085

RNASEH2C (UniProt Q8TDP1)
inactive: [1] -0.04 | volasertib -0.102 | [2] 0.049 | epoxomicin 0.049 | [3] -0.062 | [4] -0.066 | [5] 0.048 | rosiglitazone -0.033 | [6] -0.081 | [7] -0.253

RCHY1 (UniProt Q96PM5)
inactive: [1] -0.06 | volasertib -0.102 | [2] -0.001 | epoxomicin 0.055 | [3] 0.016 | [4] 0.056 | [5] 0.001 | rosiglitazone -0.044 | [6] -0.107 | [7] 0.131

RNF138 (UniProt Q8WVD3)
inactive: [1] -0.105 | volasertib -0.285 | [2] 0.143 | epoxomicin 0.081 | [3] -0.007 | [4] 0.034 | [5] 0 | rosiglitazone 0 | [6] 0.048 | [7] -0.08

RFC5 (UniProt P40937)
inactive: [1] -0.015 | volasertib -0.06 | [2] 0.04 | epoxomicin 0.045 | [3] 0.019 | [4] -0.019 | [5] 0.01 | rosiglitazone 0.031 | [6] -0.039 | [7] -0.079

RBM42 (UniProt Q9BTD8)
inactive: [1] 0.123 | volasertib 0.09 | [2] 0.042 | epoxomicin -0.085 | [3] -0.084 | [4] 0.177 | [5] -0.015 | rosiglitazone -0.06 | [6] 0.106 | [7] 0.213

Copied from the listing (2 entries):
RCHY1 (UniProt Q96PM5)
inactive: [1] -0.06 | volasertib -0.102 | [2] -0.001 | epoxomicin 0.055 | [3] 0.016 | [4] 0.056 | [5] 0.001 | rosiglitazone -0.044 | [6] -0.107 | [7] 0.131

RNF138 (UniProt Q8WVD3)
inactive: [1] -0.105 | volasertib -0.285 | [2] 0.143 | epoxomicin 0.081 | [3] -0.007 | [4] 0.034 | [5] 0 | rosiglitazone 0 | [6] 0.048 | [7] -0.08

Next records follow:

RCN1 (UniProt Q15293)
inactive: [1] 0.015 | volasertib 0.001 | [2] -0.019 | epoxomicin -0.001 | [3] 0.004 | [4] 0.085 | [5] -0.01 | rosiglitazone 0.021 | [6] -0.033 | [7] 0.02

RNASE4 (UniProt P34096)
inactive: [1] -0.018 | volasertib 0 | [2] -0.075 | epoxomicin -0.185 | [3] 0.015 | [4] -0.104 | [5] -0.097 | rosiglitazone 0.061 | [7] 0.05

RCL1 (UniProt Q9Y2P8)
inactive: [1] 0.131 | volasertib 0.084 | [2] 0.029 | epoxomicin -0.238 | [3] -0.007 | [4] 0.239 | [5] 0.048 | rosiglitazone -0.067 | [6] 0.271 | [7] 0.239

RFC2 (UniProt P35250)
inactive: [1] -0.03 | volasertib -0.04 | [2] 0.024 | epoxomicin 0.039 | [3] 0.024 | [4] -0.028 | [5] -0.001 | rosiglitazone 0.048 | [6] -0.028 | [7] 0.005

RBP5 (UniProt P82980)
inactive: [1] 0.22 | volasertib 0.287 | [2] 0.048 | epoxomicin 0.081 | [3] -0.229 | [4] -0.146 | rosiglitazone 0.033 | [6] -0.093 | [7] -0.128

RHOXF2 (UniProt Q9BQY4)
inactive: [1] 0.014 | volasertib 0.061 | [2] -0.046 | epoxomicin 0.024 | [4] 0.086 | [5] -0.028 | [6] 0.074 | [7] -0.073

RHOT1 isoform 3 (UniProt Q8IXI2)
inactive: [1] -0.027 | volasertib -0.106 | [2] -0.015 | epoxomicin 0.03 | [3] -0.037 | [4] 0.016 | [5] -0.004 | rosiglitazone 0.038 | [6] -0.016 | [7] -0.159

RIDA (UniProt P52758)
inactive: [1] 0.011 | volasertib 0.036 | [2] -0.037 | epoxomicin 0.003 | [3] 0.018 | [4] 0.003 | [5] 0.003 | rosiglitazone -0.03 | [6] -0.062 | [7] 0.045

RIPK2 (UniProt O43353)
inactive: [1] -0.083 | volasertib -0.053 | [2] 0.053 | epoxomicin -0.021 | [3] 0.034 | [4] -0.062 | [5] 0.05 | rosiglitazone 0.012 | [6] 0.027 | [7] -0.096

RBM7 (UniProt Q9Y580)
inactive: [1] -0.036 | volasertib 0.084 | [2] 0.012 | epoxomicin 0 | [3] -0.123 | [4] 0.012 | [5] -0.01 | [6] 0.23 | [7] -0.26

RDH10 (UniProt Q8IZV5)
inactive: [1] 0.068 | volasertib 0.037 | [2] 0.034 | epoxomicin -0.026 | [4] 0.021 | [5] -0.006 | [6] -0.19 | [7] 0.09

RNASEH2B (UniProt Q5TBB1)
inactive: [1] -0.142 | volasertib -0.156 | [2] 0.059 | epoxomicin 0.11 | [3] -0.14 | [4] -0.165 | [5] 0.089 | rosiglitazone 0.122 | [6] -0.065 | [7] -0.348

RELA (UniProt Q04206)
inactive: [1] -0.063 | [2] 0.013 | epoxomicin 0.025 | [4] -0.043 | [5] -0.019 | [6] -0.009 | [7] -0.011
active: volasertib -0.263

RNF123 isoform 2 (UniProt Q5XPI4)
inactive: [1] -0.135 | volasertib -0.333 | [2] 0.051 | epoxomicin 0.063 | [3] -0.021 | [4] -0.095 | [5] 0.015 | rosiglitazone -0.001 | [6] -0.015 | [7] -0.115

RIPK1 (UniProt Q13546)
inactive: [1] -0.069 | [2] 0.12 | epoxomicin -0.01 | [4] 0.041 | [5] 0.08 | [6] 0.022 | [7] -0.099
active: volasertib -0.478

RNF149 (UniProt Q8NC42)
inactive: [1] 0.025 | volasertib 0.028 | [2] 0.008 | epoxomicin 0.001 | [3] 0.035 | [4] 0.087 | [5] -0.04 | rosiglitazone 0.027 | [6] 0.109 | [7] 0.017

RNF121 (UniProt Q9H920)
inactive: [1] 0.057 | volasertib -0.124 | [2] -0.131 | epoxomicin -0.046 | [3] 0.059 | [4] -0.058 | [5] 0.04 | rosiglitazone 0.04 | [6] -0.099 | [7] 0.17
